Reference: the supplement of paper PMC4604168 (melanoma cell lines)
This is one part of the list. Single values are uncertain, as repeats are few or missing.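 Imaging used 1,536-well plates; nuclei positive for cleaved PARP by antibody were divided by total DNA-stained nuclei to yield the apoptosis fraction. Doses for screening kept most cells viable, and cell lines differ markedly in resting and induced cleaved-PARP levels.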

Columns and labels:
Experiment in all cases: cleaved PARP positive nuclei fraction relative to DMSO control; melanoma cells; higher = more apoptosis
Conditions in all cases: library dose: low library concentration; 72 h
[1] = system: MZ2-MEL
[2] = system: MeWo
[3] = system: RPMI7951
[4] = system: RVH-421
[5] = system: SkMel28
[6] = system: SkMel30
[7] = system: UACC62
[8] = system: WM115
[9] = system: WM1716
[10] = system: WM1745
[11] = system: WM3526
[12] = system: WM3619
[13] = system: WM451Lu
[14] = system: SkMel5
[15] = system: UACC257

Row | SMILES | cleaved PARP positive nuclei fraction [1] [%] | cleaved PARP positive nuclei fraction [2] [%] | cleaved PARP positive nuclei fraction [3] [%] | cleaved PARP positive nuclei fraction [4] [%] | cleaved PARP positive nuclei fraction [5] [%] | cleaved PARP positive nuclei fraction [6] [%] | cleaved PARP positive nuclei fraction [7] [%] | cleaved PARP positive nuclei fraction [8] [%] | cleaved PARP positive nuclei fraction [9] [%] | cleaved PARP positive nuclei fraction [10] [%] | cleaved PARP positive nuclei fraction [11] [%] | cleaved PARP positive nuclei fraction [12] [%] | cleaved PARP positive nuclei fraction [13] [%] | cleaved PARP positive nuclei fraction [14] [%] | cleaved PARP positive nuclei fraction [15] [%]
1 | Cn1c(=O)n(-c2ccc(C(C)(C)C#N)cc2)c2c3cc(-c4cnc5ccccc5c4)ccc3ncc21 + CO[C@H]1C[C@@H]2CC[C@@H](C)[C@@](O)(O2)C(=O)C(=O)N2CCCC[C@H]2C(=O)O[C@H]([C@H](C)C[C@@H]2CC[C@@H](OCCO)[C@H](OC)C2)CC(=O)[C@H](C)/C=C(\C)[C@@H](O)[C@@H](OC)C(=O)[C@H](C)C[C@H](C)/C=C/C=C/C=C/1C [everolimus] (first compound 0.004 µM, partner dose 0.02 µM) | 123 | 230 | 193 | 122 | 983 | 93.6 | 1020 | 411 | 177 | 128 | 34.7 | 231 | 122 | – | –
2 | CO[C@H]1C[C@@H]2CC[C@@H](C)[C@@](O)(O2)C(=O)C(=O)N2CCCC[C@H]2C(=O)O[C@H]([C@H](C)C[C@@H]2CC[C@@H](OCCO)[C@H](OC)C2)CC(=O)[C@H](C)/C=C(\C)[C@@H](O)[C@@H](OC)C(=O)[C@H](C)C[C@H](C)/C=C/C=C/C=C/1C [everolimus] + CO[C@@H]1[C@H](N(C)C(=O)c2ccccc2)C[C@H]2O[C@]1(C)n1c3ccccc3c3c4c(c5c6ccccc6n2c5c31)C(=O)NC4 [Midostaurin] (first compound 0.02 µM, partner dose 0.08 µM) | 172 | 52.7 | 139 | 106 | 191 | 100 | 244 | 556 | 374 | 104 | 67.4 | 114 | 55 | 128 | 77.6
3 | CO[C@H]1C[C@@H]2CC[C@@H](C)[C@@](O)(O2)C(=O)C(=O)N2CCCC[C@H]2C(=O)O[C@H]([C@H](C)C[C@@H]2CC[C@@H](OCCO)[C@H](OC)C2)CC(=O)[C@H](C)/C=C(\C)[C@@H](O)[C@@H](OC)C(=O)[C@H](C)C[C@H](C)/C=C/C=C/C=C/1C [everolimus] + N#Cc1c(O)c2c(-c3ccc(-c4ccccc4O)cc3)csc2[nH]c1=O [A769662] (first compound 0.02 µM, partner dose 2 µM) | 109 | 74 | 53.3 | 108 | 526 | 41.4 | 338 | 96.1 | 291 | 102 | 85.7 | 128 | 55.9 | 76.7 | 356
4 | CO[C@H]1C[C@@H]2CC[C@@H](C)[C@@](O)(O2)C(=O)C(=O)N2CCCC[C@H]2C(=O)O[C@H]([C@H](C)C[C@@H]2CC[C@@H](OCCO)[C@H](OC)C2)CC(=O)[C@H](C)/C=C(\C)[C@@H](O)[C@@H](OC)C(=O)[C@H](C)C[C@H](C)/C=C/C=C/C=C/1C [everolimus] + NCC(=O)Nc1ccc(-n2nc(C(F)(F)F)cc2-c2ccc3c(ccc4ccccc43)c2)cc1 [OSU03012] (first compound 0.02 µM, partner dose 1 µM) | 99.5 | 178 | 33.9 | 129 | 93.4 | 203 | 142 | 92.7 | 183 | 97.8 | 450 | 61.5 | 92.1 | 55.1 | 95.2
5 | CO[C@H]1C[C@@H]2CC[C@@H](C)[C@@](O)(O2)C(=O)C(=O)N2CCCC[C@H]2C(=O)O[C@H]([C@H](C)C[C@@H]2CC[C@@H](OCCO)[C@H](OC)C2)CC(=O)[C@H](C)/C=C(\C)[C@@H](O)[C@@H](OC)C(=O)[C@H](C)C[C@H](C)/C=C/C=C/C=C/1C [everolimus] + O=C(O)c1ccc(-c2c[nH]c3ncc(-c4ccccc4)cc23)cc1C1CCCC1 [GSK650394] (first compound 0.02 µM, partner dose 0.16 µM) | 122 | 188 | 154 | 96.8 | 173 | 87.4 | 501 | 147 | 45.6 | 89 | 32.7 | 116 | 84.2 | 123 | 553
6 | CO[C@H]1C[C@@H]2CC[C@@H](C)[C@@](O)(O2)C(=O)C(=O)N2CCCC[C@H]2C(=O)O[C@H]([C@H](C)C[C@@H]2CC[C@@H](OCCO)[C@H](OC)C2)CC(=O)[C@H](C)/C=C(\C)[C@@H](O)[C@@H](OC)C(=O)[C@H](C)C[C@H](C)/C=C/C=C/C=C/1C [everolimus] + O=C(O)C(=O)Nc1sc2c(c1C(=O)O)CCNC2 [TCS401] (first compound 0.02 µM, partner dose 1.66667 µM) | 205 | 60.8 | 129 | 70 | 298 | 103 | 502 | 248 | 81.8 | 111 | 113 | 164 | 66.4 | 78.5 | 225
7 | CO[C@H]1C[C@@H]2CC[C@@H](C)[C@@](O)(O2)C(=O)C(=O)N2CCCC[C@H]2C(=O)O[C@H]([C@H](C)C[C@@H]2CC[C@@H](OCCO)[C@H](OC)C2)CC(=O)[C@H](C)/C=C(\C)[C@@H](O)[C@@H](OC)C(=O)[C@H](C)C[C@H](C)/C=C/C=C/C=C/1C [everolimus] + COc1cc(Nc2ncc(F)c(Nc3ccc4c(n3)NC(=O)C(C)(C)O4)n2)cc(OC)c1OC [Tamatinib] (first compound 0.02 µM, partner dose 0.4 µM) | 210 | 105 | 86.7 | 70.6 | 381 | 97.5 | 288 | 317 | 162 | 135 | 78.3 | 99.3 | 22.4 | 127 | 215
8 | CO[C@H]1C[C@@H]2CC[C@@H](C)[C@@](O)(O2)C(=O)C(=O)N2CCCC[C@H]2C(=O)O[C@H]([C@H](C)C[C@@H]2CC[C@@H](OCCO)[C@H](OC)C2)CC(=O)[C@H](C)/C=C(\C)[C@@H](O)[C@@H](OC)C(=O)[C@H](C)C[C@H](C)/C=C/C=C/C=C/1C [everolimus] + Cn1cc(/C=C2\C(=O)Nc3cccnc32)c2ccccc21 [GW441756] (first compound 0.02 µM, partner dose 0.4 µM) | 206 | 55.1 | 146 | 159 | 293 | 239 | 341 | 157 | 186 | 108 | 70.8 | 116 | 163 | 97.8 | 471
9 | Cn1c(=O)n(-c2ccc(C(C)(C)C#N)cc2)c2c3cc(-c4cnc5ccccc5c4)ccc3ncc21 + CN1CCN(c2ccc3nc(-c4c(N)c5c(F)cccc5[nH]c4=O)[nH]c3c2)CC1 [Dovitinib] (first compound 0.004 µM, partner dose 0.1 µM) | 39.7 | 132 | 148 | 931 | 52.3 | 105 | 31.2 | 124 | 81.6 | 82.1 | 111 | 98 | 77.9 | – | –
10 | CO[C@H]1C[C@@H]2CC[C@@H](C)[C@@](O)(O2)C(=O)C(=O)N2CCCC[C@H]2C(=O)O[C@H]([C@H](C)C[C@@H]2CC[C@@H](OCCO)[C@H](OC)C2)CC(=O)[C@H](C)/C=C(\C)[C@@H](O)[C@@H](OC)C(=O)[C@H](C)C[C@H](C)/C=C/C=C/C=C/1C [everolimus] + COc1ccc(COc2ccc(Cc3cnc(N)nc3N)cc2OC)cc1 [GW2580] (first compound 0.02 µM, partner dose 1 µM) | 66 | 32.3 | 55.1 | 31.2 | 247 | 78.5 | 251 | 97.1 | 330 | 110 | 119 | 16.8 | 76.6 | 64.3 | 150
11 | CO[C@H]1C[C@@H]2CC[C@@H](C)[C@@](O)(O2)C(=O)C(=O)N2CCCC[C@H]2C(=O)O[C@H]([C@H](C)C[C@@H]2CC[C@@H](OCCO)[C@H](OC)C2)CC(=O)[C@H](C)/C=C(\C)[C@@H](O)[C@@H](OC)C(=O)[C@H](C)C[C@H](C)/C=C/C=C/C=C/1C [everolimus] + c1cc(-c2cnn3cc(-c4ccc(OCCN5CCCCC5)cc4)cnc23)ccn1 [Dorsomorphin] (first compound 0.02 µM, partner dose 0.4 µM) | 151 | 35 | 33.7 | 133 | 536 | 52.7 | 229 | 145 | 33.9 | 96.3 | 109 | 99.6 | 44.8 | 86.8 | 580
12 | CO[C@H]1C[C@@H]2CC[C@@H](C)[C@@](O)(O2)C(=O)C(=O)N2CCCC[C@H]2C(=O)O[C@H]([C@H](C)C[C@@H]2CC[C@@H](OCCO)[C@H](OC)C2)CC(=O)[C@H](C)/C=C(\C)[C@@H](O)[C@@H](OC)C(=O)[C@H](C)C[C@H](C)/C=C/C=C/C=C/1C [everolimus] + Cc1cc(N2CCOCC2)cc2[nH]c(-c3c(NC[C@@H](O)c4cccc(Cl)c4)cc[nH]c3=O)nc12 [BMS536924] (first compound 0.02 µM, partner dose 0.2 µM) | 279 | 153 | 207 | 54.1 | 137 | 124 | 173 | 294 | 64.1 | 125 | 91.6 | 148 | 114 | 109 | 550
13 | CO[C@H]1C[C@@H]2CC[C@@H](C)[C@@](O)(O2)C(=O)C(=O)N2CCCC[C@H]2C(=O)O[C@H]([C@H](C)C[C@@H]2CC[C@@H](OCCO)[C@H](OC)C2)CC(=O)[C@H](C)/C=C(\C)[C@@H](O)[C@@H](OC)C(=O)[C@H](C)C[C@H](C)/C=C/C=C/C=C/1C [everolimus] + CC1(C)NC(=O)N(c2ccc([N+](=O)[O-])c(C(F)(F)F)c2)C1=O [nilutamide] (first compound 0.02 µM, partner dose 1 µM) | 152 | 459 | 34 | 62.9 | 463 | 105 | 149 | 122 | 212 | 98.8 | 194 | 147 | 122 | 94 | 521
